Source: US20230143751A1, “Aromatic Compound And Use Thereof In Preparing Antineoplastic Drugs” (Shanghai Zheye Biotechnology Co. Ltd., priority 2020, published 2023)
Some entries share one result that the patent states for a list of compounds.

Tests used:
[1] = Analysis regarding therapeutic safety window; conditions: in vivo
[2] = test system: MIA PaCa-2-derived xenograft tumor; assay: Pharmacodynamics test of MIA PaCa-2-derived xenograft tumor model in nude mice (test 6); conditions: pharmacodynamic test in vivo
Description: Animal species and number: Balb/c Nude; 6 animals per group.
Test samples: Compound 3-2, Compound 3-6, Compound 3-20, Compound 3-12M.
Test groups: blank solvent control group; Compound 3-2 (10 mg/kg, QD×15 days), Compound 3-6 (10 mg/kg, QD×15 days), Compound 3-20 (10 mg/kg, QD×15 days), Compound 3-12M (10 mg/kg, QD×15 days).
Animal model establishment: MIA paca-2 tumor cells in logarithmic growth phase were cultured in vitro and collected, and inoculated subcutaneously into the right back of nude mice at a quantity of 5×10^6 cells/each. When the tumor volume reached 150-300 mm^3, the tumor-bearing nude mice were randomly grouped. Subsequently, the animals in each group were administered, and the day of the first administration was defined as day 1 of the test.
Administration route and frequency: oral administration by gavage; once a day.
General state observation: observation time and frequency: once a day; observation indexes or contents: including but not limited to administration location, appearance and signs, general behavioral activities, mental status, death and other abnormal performance of the animals. The animals were euthanized at the end of the test.
Tumor volume calculation: V=½×long diameter×short diameter^2 (mm^3). Tumor growth inhibition rate TGI (%) is used to evaluate the tumor inhibition efficacy of the compounds. […]

Structure (SMILES) | therapeutic safety window: ratio of toxic dose to effective dose [1] | effective dose for tumor inhibition [2]
[2H]C([2H])=Cc1cccc(F)c1-c1nc2c(cc1Cl)c(N1CCN(C(=O)C=C)C[C@@H]1C)nc(=O)n2-c1c(C)ccnc1C(C)C [Compound 3-12M] | greater than 80 | 
C=CC(=O)N1CCN(c2nc(=O)n(-c3c(C)ccnc3C(C)C)c3nc(-c4c(F)cccc4C=C)c(Cl)cc23)[C@@H](C)C1 [Compound 3-6] | greater than 80 | 
C=CC(=O)N1CCN(c2nc(=O)n(-c3c(C)ccnc3C(C)C)c3nc(-c4ccccc4C=C)c(Cl)cc23)[C@@H](C)C1 [Compound 3-2] |  | less than 10 mg/kg
